In article PMC10244377:
These are yes or no findings as the source states them, for the method shown. Binding seen in cells or lysates may run through a third protein. These calls come from enrichment with a bait or labelling near it, and not all partners need be listed. One block for each molecule: values may come before it.

Sequences of proteins named here, by UniProt entry; tags and fusion partners are left off.
UniProt Q9UKV8: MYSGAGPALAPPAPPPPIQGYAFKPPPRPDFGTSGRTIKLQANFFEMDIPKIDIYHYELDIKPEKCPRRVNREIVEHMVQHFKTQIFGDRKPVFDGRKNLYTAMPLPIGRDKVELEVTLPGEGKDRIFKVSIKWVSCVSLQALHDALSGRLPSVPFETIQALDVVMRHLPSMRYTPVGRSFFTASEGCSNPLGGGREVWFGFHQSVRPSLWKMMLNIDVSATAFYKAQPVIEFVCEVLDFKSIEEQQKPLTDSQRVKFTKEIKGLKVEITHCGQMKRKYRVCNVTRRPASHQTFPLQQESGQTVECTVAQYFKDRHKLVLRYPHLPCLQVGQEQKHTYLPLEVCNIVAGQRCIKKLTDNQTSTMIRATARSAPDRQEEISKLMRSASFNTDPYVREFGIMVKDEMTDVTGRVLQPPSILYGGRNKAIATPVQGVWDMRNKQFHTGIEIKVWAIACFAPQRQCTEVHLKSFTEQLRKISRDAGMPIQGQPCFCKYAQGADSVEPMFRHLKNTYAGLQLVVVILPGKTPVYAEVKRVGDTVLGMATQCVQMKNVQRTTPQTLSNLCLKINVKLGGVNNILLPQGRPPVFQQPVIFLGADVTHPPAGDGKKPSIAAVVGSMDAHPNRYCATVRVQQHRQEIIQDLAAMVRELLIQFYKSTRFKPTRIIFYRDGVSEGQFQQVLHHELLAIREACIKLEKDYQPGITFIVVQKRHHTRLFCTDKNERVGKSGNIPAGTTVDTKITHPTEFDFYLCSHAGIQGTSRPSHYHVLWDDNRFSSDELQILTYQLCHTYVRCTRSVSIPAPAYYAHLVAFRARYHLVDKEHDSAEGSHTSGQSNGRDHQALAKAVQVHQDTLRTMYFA
UniProt P14873: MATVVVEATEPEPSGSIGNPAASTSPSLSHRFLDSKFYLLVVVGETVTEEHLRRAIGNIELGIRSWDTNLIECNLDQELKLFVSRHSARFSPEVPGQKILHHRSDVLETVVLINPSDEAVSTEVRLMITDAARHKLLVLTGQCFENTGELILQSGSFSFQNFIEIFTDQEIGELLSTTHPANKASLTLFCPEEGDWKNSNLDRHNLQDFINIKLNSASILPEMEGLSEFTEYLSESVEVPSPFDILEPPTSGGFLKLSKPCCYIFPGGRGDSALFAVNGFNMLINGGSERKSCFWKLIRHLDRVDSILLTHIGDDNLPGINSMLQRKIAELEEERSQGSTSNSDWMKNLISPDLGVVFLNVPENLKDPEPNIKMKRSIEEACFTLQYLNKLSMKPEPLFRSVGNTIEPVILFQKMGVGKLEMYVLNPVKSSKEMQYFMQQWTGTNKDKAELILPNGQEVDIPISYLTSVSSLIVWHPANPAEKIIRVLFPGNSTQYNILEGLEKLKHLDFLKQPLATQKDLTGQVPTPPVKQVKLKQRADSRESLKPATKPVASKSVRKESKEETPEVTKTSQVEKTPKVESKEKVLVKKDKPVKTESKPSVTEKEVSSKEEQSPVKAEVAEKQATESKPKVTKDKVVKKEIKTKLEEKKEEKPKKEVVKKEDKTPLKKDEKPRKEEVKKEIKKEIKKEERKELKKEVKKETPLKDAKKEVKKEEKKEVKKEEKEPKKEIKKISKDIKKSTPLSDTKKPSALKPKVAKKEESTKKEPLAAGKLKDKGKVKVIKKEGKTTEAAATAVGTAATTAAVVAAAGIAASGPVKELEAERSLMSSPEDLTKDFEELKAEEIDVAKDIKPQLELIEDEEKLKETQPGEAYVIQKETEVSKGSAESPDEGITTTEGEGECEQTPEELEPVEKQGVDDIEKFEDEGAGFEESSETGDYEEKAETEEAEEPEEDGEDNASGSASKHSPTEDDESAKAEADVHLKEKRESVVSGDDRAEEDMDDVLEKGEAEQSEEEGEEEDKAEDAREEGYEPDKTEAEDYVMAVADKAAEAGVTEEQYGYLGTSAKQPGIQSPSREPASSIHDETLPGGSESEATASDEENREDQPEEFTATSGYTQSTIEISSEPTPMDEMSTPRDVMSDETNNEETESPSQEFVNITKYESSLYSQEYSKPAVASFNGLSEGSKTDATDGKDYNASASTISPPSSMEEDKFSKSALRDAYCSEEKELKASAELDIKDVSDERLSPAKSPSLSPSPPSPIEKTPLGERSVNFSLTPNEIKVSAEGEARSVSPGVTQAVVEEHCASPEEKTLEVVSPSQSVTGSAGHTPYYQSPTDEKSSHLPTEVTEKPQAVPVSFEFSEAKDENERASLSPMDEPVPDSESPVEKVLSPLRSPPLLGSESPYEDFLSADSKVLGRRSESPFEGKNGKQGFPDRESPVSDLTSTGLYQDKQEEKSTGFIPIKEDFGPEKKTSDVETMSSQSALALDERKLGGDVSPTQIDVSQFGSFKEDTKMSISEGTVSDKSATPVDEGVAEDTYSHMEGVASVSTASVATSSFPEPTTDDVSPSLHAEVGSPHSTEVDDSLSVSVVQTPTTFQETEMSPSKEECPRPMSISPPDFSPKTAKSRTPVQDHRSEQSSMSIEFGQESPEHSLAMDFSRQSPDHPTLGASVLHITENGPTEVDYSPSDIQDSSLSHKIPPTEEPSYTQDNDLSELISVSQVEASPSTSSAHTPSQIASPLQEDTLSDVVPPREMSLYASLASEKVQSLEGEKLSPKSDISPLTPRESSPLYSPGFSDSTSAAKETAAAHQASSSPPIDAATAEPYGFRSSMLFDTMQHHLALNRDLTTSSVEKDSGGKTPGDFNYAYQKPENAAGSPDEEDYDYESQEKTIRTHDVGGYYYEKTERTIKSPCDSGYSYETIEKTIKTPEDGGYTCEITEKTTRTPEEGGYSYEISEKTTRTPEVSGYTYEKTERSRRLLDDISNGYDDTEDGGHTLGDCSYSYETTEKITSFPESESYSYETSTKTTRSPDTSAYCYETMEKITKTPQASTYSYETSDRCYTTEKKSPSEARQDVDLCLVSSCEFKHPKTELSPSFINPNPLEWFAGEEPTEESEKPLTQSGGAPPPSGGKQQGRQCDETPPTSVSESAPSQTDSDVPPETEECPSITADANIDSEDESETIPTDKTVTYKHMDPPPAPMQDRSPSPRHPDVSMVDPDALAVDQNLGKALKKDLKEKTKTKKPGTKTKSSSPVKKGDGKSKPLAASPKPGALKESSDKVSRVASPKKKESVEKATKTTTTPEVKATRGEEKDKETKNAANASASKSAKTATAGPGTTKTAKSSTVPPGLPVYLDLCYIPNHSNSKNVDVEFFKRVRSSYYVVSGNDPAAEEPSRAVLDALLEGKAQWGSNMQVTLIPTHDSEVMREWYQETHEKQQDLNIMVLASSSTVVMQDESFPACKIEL
UniProt P45591: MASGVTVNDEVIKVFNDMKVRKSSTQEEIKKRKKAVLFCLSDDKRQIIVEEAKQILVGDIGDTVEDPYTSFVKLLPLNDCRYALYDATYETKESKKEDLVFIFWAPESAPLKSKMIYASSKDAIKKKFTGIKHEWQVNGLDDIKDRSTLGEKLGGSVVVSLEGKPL

What was measured:
[1] = target: T1, Lissencephaly-1 (LIS1), mouse, endogenous in mESCs (mouse (endogenous in mESCs)) (UniProt P63005); test: affinity purification with mass spectrometry; anti-LIS1 IP from whole-cell lysates (cytoplasm and nuclear extracts) of AGO1-4 KO mESCs without doxycycline (no Argonaute proteins); compared with Dox.AGO2
T1 sequence: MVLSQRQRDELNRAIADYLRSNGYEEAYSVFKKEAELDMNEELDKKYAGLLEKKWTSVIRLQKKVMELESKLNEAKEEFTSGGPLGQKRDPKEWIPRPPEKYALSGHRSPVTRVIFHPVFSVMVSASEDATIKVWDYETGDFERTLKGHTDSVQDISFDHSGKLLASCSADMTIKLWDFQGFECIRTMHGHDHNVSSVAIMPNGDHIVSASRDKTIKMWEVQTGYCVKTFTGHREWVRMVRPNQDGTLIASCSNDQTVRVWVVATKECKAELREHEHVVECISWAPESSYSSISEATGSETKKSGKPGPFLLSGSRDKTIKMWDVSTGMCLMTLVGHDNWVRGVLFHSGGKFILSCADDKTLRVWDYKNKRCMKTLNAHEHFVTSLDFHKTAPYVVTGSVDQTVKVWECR

[2] = target: T1, Lissencephaly-1 (LIS1), mouse, endogenous in mESCs (mouse (endogenous in mESCs)); test: affinity purification with mass spectrometry; anti-LIS1 IP or IgG from whole-cell lysates (cytoplasm and nuclear extracts) of AGO1-4 KO mESCs with doxycycline-induced human AGO2 (Dox.AGO2)
[3] = target: T1, Lissencephaly-1 (LIS1), mouse, endogenous in mESCs (mouse (endogenous in mESCs)); test: affinity purification with mass spectrometry; anti-LIS1 (338) IP on protein A/G beads from cytoplasmic and nuclear extracts of WT, F/- and LIS1-dsRED OE mESCs; IP buffer 50 mM Tris-HCl pH 7.5, 150 mM NaCl, 1% Triton X-100, 6 h at 4 °C; LC-MS/MS

Molecule: human AGO2, doxycycline-induced in Ago1,2,3,4 knockout mESCs (from UniProt Q9UKV8 1-859)
binding [2]: binds

Molecule: microtubule-associated protein MAP1B (from UniProt P14873 1-2464)
binding [1]: binds

B1: centrosomal protein CEP55 (protein, UniProt Q8BT07 1-462)
chain: MSSRSPKDLIKSKWGSRPSSSKSDTALEKFKGEIAAFKTSLDEITSGKGKMAEKGRSRLLEKIQVLEAEREKNVYYLLEKDKEIQRLKDHLRSRYSSSSLFEQLEEKTKECEKKQQLLESLSKETDVLKNQLSATTKRLSELESKASTLHLSQSMPANCFNSSMNSIHEKEMQLKDALEKNQQWLVYDQQREAYVKGLLAKIFELEKRTETAAASLTQQMKKIESEGYLQVEKQKYDHLLENAKKDLEVERQAVTQLRLELDEFRRKYEEARKEVEDLNQLLSSQRKADIQHLEEDKQKTERIQKLREESSIFKGKLEEERKRSEELLSQVRILYDSLLKHQEEQARVALLEQQMQACTLDFENEKLDRQNMQHQLYVILKELRKAKSQITQLESLKQLHGFTITEQPFPLQREPESRVKATSPKSPSAALNDSLVECPKCSVQYPATEHRDLLVHVEYCMK
binding [1]: binds

Further lines, results first:

binding [1]: binds
Molecule: cofilin-2 (CFL2) (from UniProt P45591 1-166)

binding [1]: binds
B2: kinetochore protein ZWINT (protein, UniProt Q9CQU5 1-252)
chain: MADAEKNAVAEKNNAVATKEVLAEAAAILEPVGLQEEAELPAKIMEEFMRNSRKKDKLLCSQLQVVNFLQTFLAQEDTEQSPDALASEDASRQKATETKEQWKDMKATYMDHVDVIKCALSEALPQVKEAHRKYTELQKAFEQLEAKKRVLEEKLQLAQKQWVLQQKRLQNLTKISAEVKRRRKRALEKLDGSHQELETLKQQAGQEQEKLQRNQSYLQLLCSLQNKLVISEGKAEDKDVKGRALTAKSKSP

binding [3]: binds
B3: LIN28a (protein, UniProt Q8K3Y3 1-209)
chain: MGSVSNQQFAGGCAKAAEKAPEEAPPDAARAADEPQLLHGAGICKWFNVRMGFGFLSMTARAGVALDPPVDVFVHQSKLHMEGFRSLKEGEAVEFTFKKSAKGLESIRVTGPGGVFCIGSERRPKGKNMQKRRSKGDRCYNCGGLDHHAKECKLPPQPKKCHFCQSINHMVASCPLKAQQGPSSQGKPAYFREEEEEIHSPALLPEAQN
